Inconclusive results, whose numbers are uncertain, are shown with a selection of clear calls. A potency beside an inconclusive call is a rough fit, not a confirmed value. Active and inactive are the calls of the source. Calls come from the whole dose curve; as a rule, active = well fitted inhibition curve with a large enough effect; inconclusive = small, poorly fitted or top-dose-only effect; inactive = no such curve, though single readings can be large or run the other way.
Target: Rap guanine nucleotide exchange factor 4 (Homo sapiens) (UniProt Q8WZA2)
Experiment: Confirmatory qHTS for antagonist of cAMP-regulated guanine nucleotide exchange factor 4 (EPAC2) (AID 1645885); note: nearly all actives have a fitted effect of over 25% in size
Conditions: EPAC2 Rap1B-BODIPY-GDP exchange fluorescence, biochemical; series mostly up to 114 µM
Potency is the fitted concentration of half-maximal effect.

Chains of the proteins cited; added tags and fusions are not shown. Lines headed by an entry give the natural chain unless they say otherwise; changes in a name come on top.
UniProt Q8WZA2: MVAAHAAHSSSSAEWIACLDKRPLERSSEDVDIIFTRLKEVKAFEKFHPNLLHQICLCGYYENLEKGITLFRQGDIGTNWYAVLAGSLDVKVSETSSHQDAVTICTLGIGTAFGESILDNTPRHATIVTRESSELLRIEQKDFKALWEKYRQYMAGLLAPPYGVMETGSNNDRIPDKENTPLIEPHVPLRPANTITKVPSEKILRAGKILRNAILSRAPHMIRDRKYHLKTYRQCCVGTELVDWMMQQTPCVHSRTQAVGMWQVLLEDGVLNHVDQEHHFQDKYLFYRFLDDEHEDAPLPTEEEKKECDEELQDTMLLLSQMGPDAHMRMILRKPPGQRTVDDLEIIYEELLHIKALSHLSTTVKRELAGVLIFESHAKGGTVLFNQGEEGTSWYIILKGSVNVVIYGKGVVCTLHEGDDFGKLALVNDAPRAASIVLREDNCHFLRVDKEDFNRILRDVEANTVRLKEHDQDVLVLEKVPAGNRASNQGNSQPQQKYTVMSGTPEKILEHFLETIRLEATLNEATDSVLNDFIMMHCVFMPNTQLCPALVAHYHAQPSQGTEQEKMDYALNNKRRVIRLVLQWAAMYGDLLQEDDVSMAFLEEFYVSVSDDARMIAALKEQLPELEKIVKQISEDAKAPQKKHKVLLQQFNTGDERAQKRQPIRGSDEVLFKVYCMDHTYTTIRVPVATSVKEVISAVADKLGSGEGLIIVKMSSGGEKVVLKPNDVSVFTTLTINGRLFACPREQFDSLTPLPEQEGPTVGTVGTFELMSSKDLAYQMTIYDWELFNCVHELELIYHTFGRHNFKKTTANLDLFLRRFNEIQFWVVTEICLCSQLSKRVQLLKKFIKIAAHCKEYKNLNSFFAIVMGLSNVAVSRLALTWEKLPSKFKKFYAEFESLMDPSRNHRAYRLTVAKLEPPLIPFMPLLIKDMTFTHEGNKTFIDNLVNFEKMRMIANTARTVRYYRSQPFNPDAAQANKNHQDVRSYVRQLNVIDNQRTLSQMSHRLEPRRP

Potency, inconclusive:
Cc1nn(C)cc1N1C(=O)c2cccc3c(N)ccc(c23)C1=O 23.9 µM [inhibitor, partial curve, poor fit]
CCN(CC)c1ccc2cc(C(=O)NNC(=O)c3ccc(S(=O)(=O)N4CCCCC4)cc3)c(=O)oc2c1 8.49 µM [inhibitor, partial curve, poor fit]
Nc1cc(N)cc(N)c1 35 µM [inhibitor, partial curve, poor fit]

Potency, active:
CNc1ccc2c3c(cccc13)C(=O)N(C)C2=O 84.9 µM
N#CC(C(=O)NCc1ccccc1)c1nc2ccccc2nc1N1CCCC1 (stereo unspecified) 75.7 µM
Cn1nc(-c2ccccc2)c2nc3ccccc3nc21 75.7 µM

Reference: PubChem BioAssay (NCATS)
